For one compound, IC50 results are on record in ChEMBL document CHEMBL3436045 (Sci Rep, 2013).

Sequences of proteins named here, by UniProt entry; tags and fusion partners are left off. A change or cut given only in a name is not applied to a line headed by its entry.
UniProt Q13698: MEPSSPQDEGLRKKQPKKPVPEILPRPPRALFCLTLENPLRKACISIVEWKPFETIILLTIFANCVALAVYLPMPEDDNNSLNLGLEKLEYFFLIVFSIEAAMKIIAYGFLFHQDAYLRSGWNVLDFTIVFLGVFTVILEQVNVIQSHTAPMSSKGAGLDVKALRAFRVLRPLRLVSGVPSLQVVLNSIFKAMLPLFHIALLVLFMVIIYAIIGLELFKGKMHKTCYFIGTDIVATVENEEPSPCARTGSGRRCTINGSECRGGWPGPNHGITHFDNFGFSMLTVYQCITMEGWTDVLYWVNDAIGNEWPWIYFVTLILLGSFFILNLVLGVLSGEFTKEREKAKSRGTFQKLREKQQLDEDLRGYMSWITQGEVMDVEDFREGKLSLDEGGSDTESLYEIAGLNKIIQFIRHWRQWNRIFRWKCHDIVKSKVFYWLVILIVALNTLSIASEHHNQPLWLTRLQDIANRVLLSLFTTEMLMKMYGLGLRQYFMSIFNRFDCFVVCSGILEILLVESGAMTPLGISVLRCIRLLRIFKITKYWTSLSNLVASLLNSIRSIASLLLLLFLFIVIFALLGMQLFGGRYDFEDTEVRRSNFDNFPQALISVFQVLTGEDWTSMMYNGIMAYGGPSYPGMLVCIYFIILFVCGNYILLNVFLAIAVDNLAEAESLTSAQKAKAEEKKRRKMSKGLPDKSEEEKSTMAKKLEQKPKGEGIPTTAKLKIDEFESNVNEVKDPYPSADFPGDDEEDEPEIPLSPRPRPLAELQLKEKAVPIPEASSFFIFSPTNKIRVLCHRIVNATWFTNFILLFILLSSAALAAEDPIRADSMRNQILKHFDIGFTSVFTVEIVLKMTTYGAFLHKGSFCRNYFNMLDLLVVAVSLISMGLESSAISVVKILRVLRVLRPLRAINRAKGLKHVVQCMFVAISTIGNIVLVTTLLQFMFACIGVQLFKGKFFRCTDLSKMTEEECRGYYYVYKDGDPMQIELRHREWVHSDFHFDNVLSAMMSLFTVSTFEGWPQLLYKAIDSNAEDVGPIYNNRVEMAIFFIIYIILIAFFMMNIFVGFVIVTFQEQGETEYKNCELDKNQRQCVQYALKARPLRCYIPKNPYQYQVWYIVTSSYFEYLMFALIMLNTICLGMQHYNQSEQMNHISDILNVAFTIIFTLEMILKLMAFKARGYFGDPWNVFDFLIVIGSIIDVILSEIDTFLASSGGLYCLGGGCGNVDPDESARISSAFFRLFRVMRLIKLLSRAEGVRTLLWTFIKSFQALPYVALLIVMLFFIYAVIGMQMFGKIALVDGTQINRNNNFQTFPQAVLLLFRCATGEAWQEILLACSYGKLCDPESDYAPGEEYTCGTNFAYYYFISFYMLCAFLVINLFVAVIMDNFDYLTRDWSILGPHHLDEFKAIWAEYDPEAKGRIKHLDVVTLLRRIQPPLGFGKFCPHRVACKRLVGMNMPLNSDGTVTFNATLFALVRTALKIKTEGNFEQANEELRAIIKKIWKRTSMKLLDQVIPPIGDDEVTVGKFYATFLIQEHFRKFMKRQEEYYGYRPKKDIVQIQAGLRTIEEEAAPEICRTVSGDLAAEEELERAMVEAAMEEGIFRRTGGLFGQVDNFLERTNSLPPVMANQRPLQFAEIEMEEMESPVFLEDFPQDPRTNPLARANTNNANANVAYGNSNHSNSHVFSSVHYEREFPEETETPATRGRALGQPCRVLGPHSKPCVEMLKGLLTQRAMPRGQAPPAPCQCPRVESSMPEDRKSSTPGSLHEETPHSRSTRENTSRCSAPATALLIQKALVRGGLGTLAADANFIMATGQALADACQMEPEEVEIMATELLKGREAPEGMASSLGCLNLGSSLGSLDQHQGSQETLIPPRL
UniProt Q01668: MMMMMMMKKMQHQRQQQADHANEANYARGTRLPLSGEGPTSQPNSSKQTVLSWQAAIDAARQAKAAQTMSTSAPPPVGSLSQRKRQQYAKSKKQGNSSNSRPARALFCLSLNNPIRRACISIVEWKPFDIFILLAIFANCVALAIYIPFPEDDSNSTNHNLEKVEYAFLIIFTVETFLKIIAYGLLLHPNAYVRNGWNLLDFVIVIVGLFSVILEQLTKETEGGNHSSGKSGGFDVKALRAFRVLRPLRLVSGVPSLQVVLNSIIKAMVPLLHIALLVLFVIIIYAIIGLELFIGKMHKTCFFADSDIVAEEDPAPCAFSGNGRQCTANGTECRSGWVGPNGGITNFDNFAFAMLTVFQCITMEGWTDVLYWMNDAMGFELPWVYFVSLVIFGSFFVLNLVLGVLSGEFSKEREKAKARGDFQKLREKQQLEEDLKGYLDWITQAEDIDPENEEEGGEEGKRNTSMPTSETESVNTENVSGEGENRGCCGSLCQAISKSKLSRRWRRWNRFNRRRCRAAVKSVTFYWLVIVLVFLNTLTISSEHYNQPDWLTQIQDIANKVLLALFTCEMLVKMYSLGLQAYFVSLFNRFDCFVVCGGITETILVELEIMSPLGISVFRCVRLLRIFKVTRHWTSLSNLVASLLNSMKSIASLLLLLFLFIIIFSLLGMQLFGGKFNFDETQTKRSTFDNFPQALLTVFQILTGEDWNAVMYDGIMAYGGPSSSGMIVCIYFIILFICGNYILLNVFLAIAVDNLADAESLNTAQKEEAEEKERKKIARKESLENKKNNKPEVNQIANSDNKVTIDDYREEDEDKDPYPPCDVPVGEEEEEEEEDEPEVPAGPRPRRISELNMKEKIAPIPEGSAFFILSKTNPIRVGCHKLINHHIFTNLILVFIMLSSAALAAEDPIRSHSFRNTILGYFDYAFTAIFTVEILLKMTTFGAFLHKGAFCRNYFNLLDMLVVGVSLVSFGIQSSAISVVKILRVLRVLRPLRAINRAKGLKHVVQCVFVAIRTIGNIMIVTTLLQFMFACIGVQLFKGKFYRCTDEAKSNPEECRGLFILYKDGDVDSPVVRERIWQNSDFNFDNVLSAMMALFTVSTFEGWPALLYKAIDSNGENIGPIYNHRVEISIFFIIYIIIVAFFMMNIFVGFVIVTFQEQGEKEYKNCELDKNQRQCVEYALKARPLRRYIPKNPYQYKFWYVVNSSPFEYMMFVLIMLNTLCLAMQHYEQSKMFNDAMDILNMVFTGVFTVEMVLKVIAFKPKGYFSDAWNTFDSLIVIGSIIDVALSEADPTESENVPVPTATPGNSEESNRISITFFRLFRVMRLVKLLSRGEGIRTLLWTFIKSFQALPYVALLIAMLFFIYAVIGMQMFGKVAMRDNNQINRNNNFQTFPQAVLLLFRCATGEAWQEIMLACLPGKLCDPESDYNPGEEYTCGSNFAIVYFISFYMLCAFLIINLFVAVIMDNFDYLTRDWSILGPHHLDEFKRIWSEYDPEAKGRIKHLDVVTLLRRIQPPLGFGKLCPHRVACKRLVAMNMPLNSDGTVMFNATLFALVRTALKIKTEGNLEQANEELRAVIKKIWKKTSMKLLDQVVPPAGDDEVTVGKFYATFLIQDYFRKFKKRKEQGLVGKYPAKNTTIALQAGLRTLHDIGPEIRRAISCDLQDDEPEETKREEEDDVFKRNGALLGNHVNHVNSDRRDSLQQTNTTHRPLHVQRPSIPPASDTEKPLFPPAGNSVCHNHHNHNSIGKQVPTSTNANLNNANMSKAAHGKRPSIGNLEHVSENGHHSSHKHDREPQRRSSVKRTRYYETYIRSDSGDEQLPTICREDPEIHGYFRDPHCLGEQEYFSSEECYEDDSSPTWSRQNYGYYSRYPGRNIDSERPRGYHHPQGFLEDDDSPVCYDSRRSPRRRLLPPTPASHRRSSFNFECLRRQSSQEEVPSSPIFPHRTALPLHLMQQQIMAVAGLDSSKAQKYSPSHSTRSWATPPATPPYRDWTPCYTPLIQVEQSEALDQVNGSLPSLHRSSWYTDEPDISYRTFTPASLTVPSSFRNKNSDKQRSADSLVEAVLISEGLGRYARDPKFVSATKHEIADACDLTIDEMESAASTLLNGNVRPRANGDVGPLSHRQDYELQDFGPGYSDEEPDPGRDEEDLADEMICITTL
UniProt O60840: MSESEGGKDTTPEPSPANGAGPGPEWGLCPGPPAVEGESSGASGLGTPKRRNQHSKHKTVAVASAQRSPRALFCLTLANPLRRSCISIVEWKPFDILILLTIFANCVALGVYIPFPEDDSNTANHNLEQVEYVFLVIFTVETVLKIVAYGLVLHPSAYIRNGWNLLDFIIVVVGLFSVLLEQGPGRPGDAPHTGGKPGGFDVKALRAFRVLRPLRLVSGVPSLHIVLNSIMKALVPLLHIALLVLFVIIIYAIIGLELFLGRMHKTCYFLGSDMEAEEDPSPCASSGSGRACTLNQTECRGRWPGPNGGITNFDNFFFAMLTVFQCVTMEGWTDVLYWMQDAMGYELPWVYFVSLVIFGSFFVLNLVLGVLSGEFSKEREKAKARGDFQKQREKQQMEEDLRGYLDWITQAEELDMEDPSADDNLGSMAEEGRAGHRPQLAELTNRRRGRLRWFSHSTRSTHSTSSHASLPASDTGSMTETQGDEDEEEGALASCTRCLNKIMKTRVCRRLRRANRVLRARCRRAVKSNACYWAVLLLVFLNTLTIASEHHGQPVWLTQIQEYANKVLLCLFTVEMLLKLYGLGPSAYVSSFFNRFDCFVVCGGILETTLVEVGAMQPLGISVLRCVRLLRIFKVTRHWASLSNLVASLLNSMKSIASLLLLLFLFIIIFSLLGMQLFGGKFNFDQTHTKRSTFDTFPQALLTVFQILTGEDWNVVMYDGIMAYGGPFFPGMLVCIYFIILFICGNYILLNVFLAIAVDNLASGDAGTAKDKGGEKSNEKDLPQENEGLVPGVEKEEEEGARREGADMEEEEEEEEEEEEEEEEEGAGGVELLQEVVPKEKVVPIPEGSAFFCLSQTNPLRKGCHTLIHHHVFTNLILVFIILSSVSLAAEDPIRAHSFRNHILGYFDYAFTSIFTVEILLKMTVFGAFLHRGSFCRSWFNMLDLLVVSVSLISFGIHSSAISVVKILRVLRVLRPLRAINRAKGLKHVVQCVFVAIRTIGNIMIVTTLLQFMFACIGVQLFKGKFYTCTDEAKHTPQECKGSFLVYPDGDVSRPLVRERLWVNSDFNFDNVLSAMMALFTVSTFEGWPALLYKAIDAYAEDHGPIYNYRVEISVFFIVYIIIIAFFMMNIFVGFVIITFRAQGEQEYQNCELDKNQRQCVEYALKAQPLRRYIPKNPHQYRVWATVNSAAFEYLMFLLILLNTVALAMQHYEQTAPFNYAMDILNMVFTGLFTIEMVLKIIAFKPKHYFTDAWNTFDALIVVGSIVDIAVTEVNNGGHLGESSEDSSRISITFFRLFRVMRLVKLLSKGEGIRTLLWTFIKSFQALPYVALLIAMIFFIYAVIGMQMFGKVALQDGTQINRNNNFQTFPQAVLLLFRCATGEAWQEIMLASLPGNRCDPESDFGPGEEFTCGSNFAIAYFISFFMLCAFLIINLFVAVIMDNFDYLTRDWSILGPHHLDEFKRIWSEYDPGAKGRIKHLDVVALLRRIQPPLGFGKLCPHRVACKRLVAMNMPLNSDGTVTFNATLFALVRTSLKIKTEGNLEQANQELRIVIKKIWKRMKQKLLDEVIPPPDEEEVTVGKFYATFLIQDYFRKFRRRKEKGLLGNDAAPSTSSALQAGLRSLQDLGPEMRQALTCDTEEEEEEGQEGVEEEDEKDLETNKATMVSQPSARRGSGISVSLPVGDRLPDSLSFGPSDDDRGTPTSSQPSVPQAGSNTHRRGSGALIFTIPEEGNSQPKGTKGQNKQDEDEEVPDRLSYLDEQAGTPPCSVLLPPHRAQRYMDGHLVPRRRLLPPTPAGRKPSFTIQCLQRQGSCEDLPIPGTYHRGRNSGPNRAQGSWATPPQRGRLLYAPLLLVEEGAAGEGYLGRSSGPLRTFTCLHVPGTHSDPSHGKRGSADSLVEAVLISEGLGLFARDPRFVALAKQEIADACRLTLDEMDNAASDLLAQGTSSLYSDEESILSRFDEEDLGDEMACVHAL

The assay deals with Voltage-gated L-type calcium channel (Homo sapiens, UniProt Q13936+Q13698+Q01668+O60840). In words: Inhibition of Cav1.2 current measured using QPatch automatic path clamp system in CHO cells expressing Cav1.2, beta-2 and alpha-2/delta-1 subunits. It is filed as functional, cell-based, Cricetulus griseus. Also noted: ca sol conc 1.8 mM, temp Ambient.

The term IC50 denotes the concentration needed to halve the response being measured.

For `COc1cc2c(cc1OC)C(=O)C(CC1CCN(Cc3ccccc3)CC1)C2` (stereo unspecified) [DONEPEZIL], the IC50 amounted to 34.3 µM.
